Measurements published in PubChem BioAssay AID1347426 (Functional Genomics Laboratory (NCATS/FGL), 2020).
The whole screen tested about 31,000 sequences, of which about 1,400 (4.5%) were called active.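 Rule for the calls: active = median seed-adjusted z-score above 1 or below -1; inactive = the rest.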 The list shows a part of the results.

assay: Novel Modifiers of Survival Motor Neuron (SMN) Protein: Gene Identification via Genome-wide siRNA Screen; conditions: HEK293T SMN2-luciferase reporter, siRNA knockdown, 72 h; actives lie on both sides;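 note: luminescence tracks full-length SMN protein made from the SMN2 reporter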
Outline: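 Each of three siRNAs per gene is reverse-transfected (1 pmol) into reporter HEK293T cells whose luciferase output tracks SMN protein level. After 72 h culture, ONE-Glo luminescence is control-normalized, log10-transformed and MAD-standardized; Common Seed Analysis deprioritizes seed-driven hits.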

| Sequence | median seed-adjusted z-score |
| --- | --- |
| GUCCUUUGUUCAAACCAGATT against ZNF543 | inactive: 0 |
| GCUGAAGAUUAACAUGAAATT against NTN1 | inactive: -0.0419 |
| GCUACAGACGCAACGAUUATT against CLK2 | inactive: -0.0591 |
| GGCUCUCUGUCAACUAUGATT against MGC21874 | inactive: -0.354 |
| CAAUGACUAUGAAUAAGUATT against SLC9A2 | active: -1.02 |
| CCUCAGACAUUAUGACAAATT against RNF144B | inactive: 0.642 |
| ACAGCAUCCUUUGCGCUGATT against GTPBP1 | inactive: -0.18 |
| GGAGACUGGAGAUACCUUUTT against PGLYRP2 | inactive: -0.697 |
| GACUGUCGCUGGUUGGAGATT against ACPT | inactive: -0.114 |
| CUACUUCCGCAACCAGCUATT against UNC119 | inactive: 0.171 |
| CCAAGAGACUGGAUCGUGATT against CDH7 | inactive: 0 |
| GGUGGAAAAUGACCGGGAATT against SFRS15 | inactive: 0.22 |
| GCAUUUACUGGAGCAUGUATT against GFRA1 | inactive: 0.125 |
| GGAUCGGGUUUAUGGAGCATT against MRC1 | inactive: 0.179 |
| GCAUUUGAGAAGACCGUGATT against PPP1R3B | inactive: -0.298 |
| GCCUCAAAGUGGAGUACGATT against TLE3 | inactive: -0.451 |
| CUUCGACUGUGCUUACUUUTT against AKR1CL2 | inactive: -0.949 |
| CAAACAGCAGCAAAUCAAATT against TCEA3 | inactive: -0.28 |
| GAAACUAUAUCCUACUGAATT against CACNA1C | inactive: 0 |
| GGCUCUUGACAGCACGACATT against CSRP3 | inactive: 0.15 |
| GCCACGCAAAACUCCCUGATT against CRCT1 | inactive: -0.146 |
| GGGCUGCAAGUGGAAUUCATT against NR1H3 | inactive: 0.426 |

| Sequence | median seed-adjusted z-score |
| --- | --- |
| GGGUGAGACUAAGAAUAUATT against CA14 | inactive: -0.308 |
| GAGAUAGUUCUGUACAUUUTT against PADI2 | inactive: -0.199 |
| AGCUCACAAGGAUCCCAAUTT against THPO | inactive: -0.0366 |
| CGGUCGCAGUAAUAGUGGATT against HNRNPA0 | inactive: 0.149 |
| GCACCAACUCGGAUCAUCATT against GALNT12 | inactive: 0.188 |
| CAUCGUGUAUCCCAACAAATT against TRPA1 | inactive: 0.341 |
| GCAUCCUGCUCAUAUGUCATT against SLCO6A1 | inactive: 0.0239 |
| AGCUGACAAUUCUCACUUUTT against AQP8 | inactive: -0.763 |
| CCGAGAAAAUUUCGAUAAATT against NEB | inactive: 0.0485 |
| GCUGUGCUAUUUGAUUAAATT against TSEN2 | inactive: 0 |
| ACUCGACCGUGGUGGGUAATT against GJA4 | inactive: -0.18 |
| UCAACUCGGUAGAGAGAUATT against KLHL17 | inactive: 0.139 |
| GCGAGGUAUUGGGAAAUGATT against ZNF367 | inactive: -0.377 |
| GAGUGUACACUGAUAUUAATT against TOP2B | inactive: 0.225 |
| CCUCAUGCCUUAACCGUCATT against KIF13A | inactive: 0 |
| GCAGUGGGUUCUUCCGUAATT against DHX8 | inactive: -0.251 |
| AGUACAAAAAGGAUCAGAATT against HOXA3 | inactive: 0.315 |
| CAUCUUUGAAGAUCACAUATT against FDX1 | inactive: -0.0549 |
| GCAUGCACCUGCUUCCCAATT against LAIR1 | inactive: -0.0897 |
| GCAUCGUCCGGUACACUAATT against OPRD1 | inactive: 0.314 |
| CCAGGACACCACAUAUAUATT against CTSZ | inactive: -0.393 |
| CCUCAGGUCUUUAUCGGUATT against LGR4 | inactive: 0.14 |

| Sequence | median seed-adjusted z-score |
| --- | --- |
| GAUUCACAUCGUCAAGAAATT against ZNF317 | inactive: 0.087 |
| GGGAUUAGUUAACAAUACATT against CHD7 | inactive: 0.138 |
| AGUGACCGCUUUAAGCACATT against GLIS2 | inactive: 0.206 |
| AAAUACAAGUGUGCAUUUATT against CCRL2 | inactive: 0.575 |
| GCACAACAGGGUUCUAUCATT against EYA2 | inactive: 0.111 |
| CAGUUCAUGUGGAUCAUCATT against GABARAPL2 | inactive: 0.528 |
| GGAAUUGGAAAGAAUCAGATT against C1D | inactive: 0.021 |
| CCCUUGAUUGGGUAACAAATT against WDR46 | inactive: -0.136 |
| GCUUUUCUCUUACUGUGCATT against ZNF558 | inactive: -0.393 |
| GGUCUGAAACUCUACUAUATT against SHPRH | inactive: 0.169 |
| CGAUUCUACAGGUCACGGATT against NFS1 | inactive: 0.141 |
| CCUCGUUUGACACCACUGATT against SCARF2 | inactive: 0 |
| GCUACGAUCACAUUACGAATT against JARID1D | inactive: 0.293 |
| CGAAGAUUAGAGGAACAAATT against MLLT10 | inactive: -0.147 |
| GUGUAUGUUUGGACCCUGATT against WDR1 | inactive: -0.457 |
| CCACCGAUGUUCUAAAGAUTT against SLC25A14 | inactive: 0.281 |
| GUAAAGAGGUGAAGCAUAUTT against SNTB2 | inactive: 0.268 |
| CGAUGGAGAUCAACGUGAATT against UBE2E2 | active: -1.77 |
| CCAUAUUCAUGCUCAGCUUTT against ADCY5 | inactive: -0.123 |
| GCAGCAUGAACUUAUCAUATT against ADAM19 | inactive: 0.0996 |
| ACAUAAAUGCAGCCCAUUUTT against TLX1 | inactive: -0.815 |
| CAAAUCGUGUGGUACAGAATT against SUV39H1 | inactive: -0.0775 |

4 entries drawn at random from those above, as already listed:

| Sequence | median seed-adjusted z-score |
| --- | --- |
| CGAUUCUACAGGUCACGGATT against NFS1 | inactive: 0.141 |
| CCACCGAUGUUCUAAAGAUTT against SLC25A14 | inactive: 0.281 |
| GGGAUUAGUUAACAAUACATT against CHD7 | inactive: 0.138 |
| CGAUGGAGAUCAACGUGAATT against UBE2E2 | active: -1.77 |

3 entries from above, as tab-separated lines:
Sequence	median seed-adjusted z-score
CCCUUGAUUGGGUAACAAATT against WDR46	inactive: -0.136
GCUUUUCUCUUACUGUGCATT against ZNF558	inactive: -0.393
GGUCUGAAACUCUACUAUATT against SHPRH	inactive: 0.169

Continued.

| Sequence | median seed-adjusted z-score |
| --- | --- |
| GGUUCCCUGCUACGCUAAATT against ALX4 | inactive: -0.121 |
| GCACCCAUUUUUCCGGCUATT against PKN2 | inactive: 0.383 |
| CGGCAUGAAGUUUGAGAUUTT against CLDN14 | inactive: -0.456 |
| GGCAGUUGAUUGUGGAUGATT against GCN1L1 | inactive: 0.0513 |
| GCACCAGCCUGAAAGUGAATT against SIRPB2 | inactive: 0 |
| CAAGCUUGUUAACAUCAAATT against NPVF | inactive: 0.588 |
| GGAUGAUCGGUGUCCAGGATT against CABP5 | inactive: 0.372 |
| CAAUGAGGCUCUGGACAAATT against IQGAP3 | inactive: -0.183 |
| CUGCUUUGCUGGUAUCGAATT against CRIM1 | inactive: -0.155 |
| CACCAUUGACUACCACAAATT against NDST1 | inactive: -0.0763 |
| AGUCAUACCUUACCCAGCATT against ZNF264 | inactive: 0.617 |
| GGGAGAAUAUCUCAGAGUATT against CDH5 | inactive: -0.557 |
| CGAUUAUUGUGAGCCUAAUTT against JAG1 | inactive: -0.32 |
| UCACUGAUGUACUACCUAUTT against RPUSD4 | inactive: -0.0264 |
| GGAUGCAGAUUGUUCUAGUTT against ZBTB1 | inactive: 0.3 |
| CCGUGACAGCGACCAUUCATT against FIBCD1 | inactive: -0.0249 |
| UGACACUGCUUAACACCAUTT against BCKDHA | inactive: -0.299 |
| GGCUAAUUACAGUGCAGAATT against GJA1 | inactive: 0.348 |
| GGUCAUUGGUAGGUCUUCATT against AATF | inactive: 0.182 |
| GGAUAAGGGCUGCUCCCAATT against SAT2 | inactive: -0.43 |
| CCUGGAUUACAUCUACUUATT against EPHB6 | inactive: -0.0275 |
| GAGCCACUACCUUUGUCCATT against GNB3 | inactive: -0.373 |

| Sequence | median seed-adjusted z-score |
| --- | --- |
| GAAUUGAACAGGAUAAAGATT against PGGT1B | inactive: -0.164 |
| GCAGAUCUCGCUACAGGGATT against SFRS2B | inactive: -0.272 |
| GACAUAUCCUUGUUCUACATT against XRCC6 | inactive: 0 |
| CCAAGGGAGUGACCUAUUUTT against SDK1 | inactive: 0.604 |
| GGAGGAGUCCCUCAACUUATT against ETV7 | inactive: -0.00772 |
| CCCAGGUCAUCAUCCUGAATT against EEF1A2 | inactive: -0.64 |
| GGCUAUAUCAGGUUAUGAATT against SLC27A6 | inactive: -0.172 |
| CAUUCACGGUUUCAACUAUTT against RNF160 | inactive: -0.163 |
| CAAUGAUCCAAUCCACGAATT against IQGAP1 | inactive: -0.615 |
| GAGUGAUUCUAGCCUCUAATT against SEC61A1 | inactive: 0.312 |
| UCCAAUUCAUCUUAUCAAATT against MOGAT1 | inactive: 0.293 |
| CAGUGGGCGUGAUCAUGUATT against PRKD2 | inactive: 0.00493 |
| CAAGCGUGAUGUGACCCUUTT against PPP2R2B | inactive: -0.252 |
| GGUUCCGAGUUGAGACAAATT against NAAA | inactive: -0.137 |
| GUCUUUGCAUCCUAGAUAATT against UNC5D | inactive: -0.132 |
| CAUUCAUAAUGGACGGGAATT against DHDDS | inactive: 0.0122 |
| GAUUAUACCCAGACAUACATT against SLC16A4 | inactive: 0.341 |
| ACUCAACUCUGAUACUCCATT against DMRTC2 | inactive: 0 |
| GCGUGUGAAUUAUGCGGGATT against ZNF509 | inactive: 0 |
